According to the supplement of paper PMC7661543:
± gives the standard deviation of the averaged measurements. Differences between knockout arms are mostly noise.

Tested on: HCC-38
Experiment: relative cell number vs DMSO control (72 h) (% of DMSO); higher = less growth inhibition (more cells)
Method: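 QMAP-Seq: a pool of 5 breast cancer cell lines (ZR-75-1, SKBR3, HCC-38, MDA-MB-231, BT-20), each carrying 12 doxycycline-inducible Cas9 sgRNA perturbations (11 knockouts plus non-targeting sgNT), was treated with compounds for 72 h at four 10-fold doses (10 nM-10 uM or 1 nM-1 uM range). Barcodes were amplified and sequenced, and cell number was interpolated from 293T spike-in standard curves. The result is expressed as % of the median of DMSO wells. Two biological replicates.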

Fc1ccc(CNc2ncnc3ccc(F)cc23)cc1 [Spautin1]
Conditions | relative cell number
sgRNA knockout: sgATF3, 10 nM | 99.647 ± 0.019
sgRNA knockout: sgATF3, 100 nM | 96.6 ± 5.3
sgRNA knockout: sgATF3, 1000 nM | 113 ± 5
sgRNA knockout: sgATF3, 10000 nM | 102.9 ± 0.87
sgRNA knockout: sgATF4, 10 nM | 103 ± 20
sgRNA knockout: sgATF4, 100 nM | 102 ± 1.7
sgRNA knockout: sgATF4, 1000 nM | 105 ± 11
sgRNA knockout: sgATF4, 10000 nM | 112 ± 4.1
sgRNA knockout: sgATF6, 10 nM | 108 ± 4.9
sgRNA knockout: sgATF6, 100 nM | 101.34 ± 0.096
sgRNA knockout: sgATF6, 1000 nM | 109 ± 25
sgRNA knockout: sgATF6, 10000 nM | 102 ± 21
sgRNA knockout: sgATG7, 10 nM | 95.7 ± 2.2
sgRNA knockout: sgATG7, 100 nM | 102 ± 2.5
sgRNA knockout: sgATG7, 1000 nM | 104 ± 10
sgRNA knockout: sgATG7, 10000 nM | 110 ± 9.7
sgRNA knockout: sgERN1, 10 nM | 98.39 ± 0.17
sgRNA knockout: sgERN1, 100 nM | 98.8 ± 8
sgRNA knockout: sgERN1, 1000 nM | 101 ± 4
sgRNA knockout: sgERN1, 10000 nM | 108 ± 8.2
sgRNA knockout: sgHSF1, 10 nM | 95.3 ± 3.4
sgRNA knockout: sgHSF1, 100 nM | 92.7 ± 15
sgRNA knockout: sgHSF1, 1000 nM | 94.2 ± 1.9
sgRNA knockout: sgHSF1, 10000 nM | 126 ± 27
sgRNA knockout: sgHSF2, 10 nM | 104 ± 13
sgRNA knockout: sgHSF2, 100 nM | 99.4 ± 7.9
sgRNA knockout: sgHSF2, 1000 nM | 104 ± 1.7
sgRNA knockout: sgHSF2, 10000 nM | 120 ± 12
sgRNA knockout: sgKEAP1, 10 nM | 88.4 ± 7.7
sgRNA knockout: sgKEAP1, 100 nM | 95.4 ± 29
sgRNA knockout: sgKEAP1, 1000 nM | 103 ± 25
sgRNA knockout: sgKEAP1, 10000 nM | 107 ± 7
sgRNA knockout: sgNFE2L2, 10 nM | 105 ± 12
sgRNA knockout: sgNFE2L2, 100 nM | 103 ± 15
sgRNA knockout: sgNFE2L2, 1000 nM | 102 ± 7.5
sgRNA knockout: sgNFE2L2, 10000 nM | 112 ± 16
sgRNA knockout: sgSLC35F2, 10 nM | 98.8 ± 11
sgRNA knockout: sgSLC35F2, 100 nM | 97.3 ± 7.6
sgRNA knockout: sgSLC35F2, 1000 nM | 103 ± 2.3
sgRNA knockout: sgSLC35F2, 10000 nM | 97.73 ± 0.15
sgRNA knockout: sgXBP1, 10 nM | 107 ± 10
sgRNA knockout: sgXBP1, 100 nM | 97.4 ± 10
sgRNA knockout: sgXBP1, 1000 nM | 101 ± 2.2
sgRNA knockout: sgXBP1, 10000 nM | 116 ± 6.9

Cc1ccc(C(=O)N(CCCN)[C@@H](c2oc3cc(Cl)ccc3c(=O)c2Cc2ccccc2)C(C)C)cc1
Conditions | relative cell number
sgRNA knockout: sgATF3, 10 nM | 23.9 ± 2.4
sgRNA knockout: sgATF3, 100 nM | 26.5 ± 1.7
sgRNA knockout: sgATF3, 1000 nM | 31.1 ± 5
sgRNA knockout: sgATF3, 10000 nM | 5.74 ± 1.6
sgRNA knockout: sgATF4, 10 nM | 22.6 ± 0.95
sgRNA knockout: sgATF4, 100 nM | 24.2 ± 1.9
sgRNA knockout: sgATF4, 1000 nM | 24.51 ± 0.062
sgRNA knockout: sgATF4, 10000 nM | 6.15 ± 1.4
sgRNA knockout: sgATF6, 10 nM | 27.2 ± 12
sgRNA knockout: sgATF6, 100 nM | 29.8 ± 2.2
sgRNA knockout: sgATF6, 1000 nM | 37.1 ± 5.1
sgRNA knockout: sgATF6, 10000 nM | 5.55 ± 1.5
sgRNA knockout: sgATG7, 10 nM | 27.3 ± 3.4
sgRNA knockout: sgATG7, 100 nM | 29.2 ± 1.6
sgRNA knockout: sgATG7, 1000 nM | 28.7 ± 1.2
sgRNA knockout: sgATG7, 10000 nM | 6.27 ± 2.3
sgRNA knockout: sgERN1, 10 nM | 27.4 ± 7.8
sgRNA knockout: sgERN1, 100 nM | 25 ± 7.9
sgRNA knockout: sgERN1, 1000 nM | 26.1 ± 3
sgRNA knockout: sgERN1, 10000 nM | 6.32 ± 1.1
sgRNA knockout: sgHSF1, 10 nM | 25.3 ± 6.4
sgRNA knockout: sgHSF1, 100 nM | 21.4 ± 0.26
sgRNA knockout: sgHSF1, 1000 nM | 33.8 ± 1.2
sgRNA knockout: sgHSF1, 10000 nM | 3.71 ± 1.8
sgRNA knockout: sgHSF2, 10 nM | 27.3 ± 2.7
sgRNA knockout: sgHSF2, 100 nM | 29.5 ± 0.63
sgRNA knockout: sgHSF2, 1000 nM | 32.2 ± 7.8
sgRNA knockout: sgHSF2, 10000 nM | 4.62 ± 1.7
sgRNA knockout: sgKEAP1, 10 nM | 34.8 ± 4.7
sgRNA knockout: sgKEAP1, 100 nM | 26.7 ± 4
sgRNA knockout: sgKEAP1, 1000 nM | 40.382 ± 0.023
sgRNA knockout: sgKEAP1, 10000 nM | 5.7 ± 3.5
sgRNA knockout: sgNFE2L2, 10 nM | 23.1 ± 0.24
sgRNA knockout: sgNFE2L2, 100 nM | 24.5 ± 1.5
sgRNA knockout: sgNFE2L2, 1000 nM | 24.5 ± 1.8
sgRNA knockout: sgNFE2L2, 10000 nM | 4.63 ± 0.063
sgRNA knockout: sgSLC35F2, 10 nM | 24.3 ± 7.3
sgRNA knockout: sgSLC35F2, 100 nM | 25.8 ± 2.7
sgRNA knockout: sgSLC35F2, 1000 nM | 30.5 ± 0.93
sgRNA knockout: sgSLC35F2, 10000 nM | 4.51 ± 0.77
sgRNA knockout: sgXBP1, 10 nM | 25.9 ± 3.6
sgRNA knockout: sgXBP1, 100 nM | 24.9 ± 0.62
sgRNA knockout: sgXBP1, 1000 nM | 28.3 ± 1.1
sgRNA knockout: sgXBP1, 10000 nM | 5.95 ± 0.89
